Results: paper PMC10632368
No constants are given. Whether binding was seen depends on the method and setting. In cells and extracts the contact can be indirect. Some entries that bind do so weakly or less than the wild type.

By UniProt entry, the sequences of proteins in these tests, tags left out. Residues count along the entry.
UniProt Q5TEJ8: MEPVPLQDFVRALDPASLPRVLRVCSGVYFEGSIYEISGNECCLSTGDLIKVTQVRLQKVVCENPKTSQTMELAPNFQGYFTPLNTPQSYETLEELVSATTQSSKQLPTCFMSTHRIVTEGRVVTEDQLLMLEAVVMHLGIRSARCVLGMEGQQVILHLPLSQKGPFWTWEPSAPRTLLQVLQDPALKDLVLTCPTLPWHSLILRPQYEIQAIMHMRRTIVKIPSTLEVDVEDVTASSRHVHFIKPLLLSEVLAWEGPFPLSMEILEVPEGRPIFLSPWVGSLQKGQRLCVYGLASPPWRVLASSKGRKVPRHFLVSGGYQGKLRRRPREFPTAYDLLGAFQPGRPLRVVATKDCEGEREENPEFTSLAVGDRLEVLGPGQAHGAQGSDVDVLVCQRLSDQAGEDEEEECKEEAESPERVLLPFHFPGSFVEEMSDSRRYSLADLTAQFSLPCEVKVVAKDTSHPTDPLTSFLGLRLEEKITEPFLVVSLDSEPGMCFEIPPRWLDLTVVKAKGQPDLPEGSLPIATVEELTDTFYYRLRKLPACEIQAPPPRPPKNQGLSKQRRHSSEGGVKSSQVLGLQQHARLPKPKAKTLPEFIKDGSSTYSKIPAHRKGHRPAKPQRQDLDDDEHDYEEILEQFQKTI
UniProt O43914, residues 22-113: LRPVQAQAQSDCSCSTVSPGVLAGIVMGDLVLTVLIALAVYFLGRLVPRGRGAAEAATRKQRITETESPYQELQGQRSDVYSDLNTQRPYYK
UniProt P43403: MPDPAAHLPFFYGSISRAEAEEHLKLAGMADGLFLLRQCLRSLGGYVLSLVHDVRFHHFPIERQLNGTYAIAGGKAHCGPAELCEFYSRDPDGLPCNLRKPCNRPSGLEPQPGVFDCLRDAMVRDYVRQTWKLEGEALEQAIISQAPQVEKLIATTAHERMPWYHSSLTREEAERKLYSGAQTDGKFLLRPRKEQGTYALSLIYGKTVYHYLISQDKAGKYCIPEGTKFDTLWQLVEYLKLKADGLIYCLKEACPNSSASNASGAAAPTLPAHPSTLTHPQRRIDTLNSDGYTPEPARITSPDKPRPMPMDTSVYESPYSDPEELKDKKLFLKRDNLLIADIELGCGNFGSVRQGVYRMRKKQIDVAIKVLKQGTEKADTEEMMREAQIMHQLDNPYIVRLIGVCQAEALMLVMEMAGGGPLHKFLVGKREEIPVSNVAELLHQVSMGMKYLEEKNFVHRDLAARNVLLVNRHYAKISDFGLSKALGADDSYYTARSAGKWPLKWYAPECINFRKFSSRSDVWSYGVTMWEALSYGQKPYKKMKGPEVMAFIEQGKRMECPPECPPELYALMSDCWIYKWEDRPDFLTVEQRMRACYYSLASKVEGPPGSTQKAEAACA

How the values were obtained:
[1] = target: FLAG-tagged THEMIS2 (human) (UniProt Q5TEJ8); assay: co-IP; NKL-Ly49H cells expressing THEMIS2-FLAG stimulated with anti-Ly49H mAb for 2 or 5 min; cytosolic proteins without DTSSP; anti-FLAG M2 affinity gel; immunoblot with anti-DAP12 or anti-ZAP70
[2] = target: FLAG-tagged THEMIS2 (human) (UniProt Q5TEJ8); assay: cross-linking + co-IP; NKL-Ly49H cells expressing THEMIS2-FLAG stimulated with anti-Ly49H mAb for 2 or 5 min; cytosolic proteins treated with DTSSP; anti-FLAG M2 affinity gel, eluted with 3x FLAG peptides; immunoblot with anti-DAP12 or anti-ZAP70

| binding [2] | Substance | binding [1] |
| --- | --- | --- |
| binds weakly | DAP12 (from UniProt O43914 22-113) | no binding (condition: without DTSSP cross-linking) |
| binds weakly | ZAP70 (from UniProt P43403 1-619) | no binding (condition: without DTSSP cross-linking) |
